Results as given in PubChem BioAssay AID504467 (National Center for Advancing Translational Sciences (NCATS), 2011).
Hit rate of the full screen: of about 330,000 compounds, about 7,700 (2.3%) were called active. The inconclusive results got no clear call from the source; some entries with a clear call stand among them for comparison. Calls come from the whole dose curve; as a rule, active = well fitted inhibition curve with a large enough effect; inconclusive = small, poorly fitted or top-dose-only effect, or effect the other way; inactive = flat fitted curve, though single readings scatter. Potencies of inconclusive entries are doubtful fits and often do not repeat.

Test: qHTS screen for small molecules that inhibit ELG1-dependent DNA repair in human embryonic kidney (HEK293T) cells expressing luciferase-tagged ELG1; note: nearly all actives have a fitted effect of over 55% in size
Conditions: HEK293T ELG1-luciferase reporter, luminescence, 16 h, DNA damage induced by 5-fluorouridine; activity change, negative = inhibition: at 46.1 µM (top of the series)
Outline: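 HEK293T cells expressing luciferase-tagged ELG1 (2,000/well) received 5-Fluorouridine plus compound or DMSO for 16 hr at 37 °C. Luciferase was read by ONE-Glo luminescence after 30 min at room temperature.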
% is set by controls: 0 for no effect and ±100 for the full control effect; potency is the fitted concentration of half-maximal effect.

SMILES | activity change, negative = inhibition | Potency
NNC(=S)NCc1ccc2c(c1)OCO2 | inactive: 8.83% | –
Cc1cc(NC(=O)COC(=O)C2CC(=O)N(c3cccc(C)c3C)C2)no1 (configuration not stated) | inactive: -0.593% | –
Cc1cc([N+](=O)[O-])ccc1NC(=O)CSc1nnc(C)n1C | – | inconclusive: 0.146 µM [inhibitor, full curve, poor fit]
Clc1ccc(-c2nnc(SCc3nc4ccccc4s3)o2)cc1 | – | inconclusive: 23.1 µM [activator, single point]
COc1cc(NC(=O)c2cnc(NCc3ccccc3)nc2C)cc(OC)c1OC | – | inconclusive: 29.1 µM [inhibitor, partial curve, poor fit]
COc1ccc(-n2ccnc2SCC(=O)NCc2ccc3c(c2)OCO3)cc1 | – | inconclusive: 29.1 µM [inhibitor, single point]
O=C(Nc1nc(-c2ccccc2)cs1)NC1CCCCC1 | – | inconclusive: 10.3 µM [activator, partial curve]
COc1ccc(CNC(=O)CN(C)CC(=O)Nc2ccccc2Br)cc1 | – | inconclusive: 25.9 µM [inhibitor, single point]
Cc1nn(CC(=O)Nc2ccc3c(c2)nc2n3CCN(C3CCCCC3)C2)c(=O)c2ccccc12 | inactive: -2.04% | –
O=C(O)c1ccc2c(c1)C(=O)N(c1ccc(/C=C/C(=O)c3ccccc3)cc1)C2=O | – | inconclusive: 23.1 µM [activator, partial curve]
CCOc1cc(/C=C2/N=C(c3ccc4c(c3)OCO4)OC2=O)ccc1OC(C)=O | inactive: 11.1% | –
O=C(Nc1ccccc1O)c1cc(S(=O)(=O)N2CCOCC2)ccc1Cl | inactive: -1.04% | –
O=C1C2C3c4ccccc4C(c4ccccc43)C2C(=O)N1Cc1ccco1 (configuration not stated) | – | inconclusive: 23.1 µM [inhibitor, single point]
CC(C)c1ccc(C(C)NC(=S)NC2CCCCC2)cc1 (configuration not stated) | inactive: -0.399% | –
Cc1noc(C)c1S(=O)(=O)N1CCCC1C(=O)NC(C)(C)C (configuration not stated) | inactive: 2.4% | –
O=C(NCc1ccccc1)C(=O)c1cn(CC(=O)N2CCOCC2)c2ccccc12 | – | inconclusive: 10.3 µM [activator, partial curve, poor fit]
O=C(Nc1cccc([N+](=O)[O-])c1)NC1CCCCCCC1 | – | inconclusive: 11.6 µM [activator, partial curve]
O=C(Cc1ccc(S(=O)(=O)N2CCCC2)s1)Nc1cccc([N+](=O)[O-])c1 | – | inconclusive: 20.6 µM [inhibitor, single point]
O=C(CCCCCNC(=O)c1ccccc1)N/N=C/c1ccc(O)cc1O | inactive: 8.2% | –
CCOC(=O)c1sc(-c2ccccn2)nc1C | – | inconclusive: 29.1 µM [activator, single point]
O=C(Nc1ccccn1)c1ccc(Cl)s1 | – | inconclusive: 4.61 µM [activator, partial curve, poor fit]
O=C(N/N=C/c1cccc(O)c1)c1cc(-c2ccccc2)nc2ccccc12 | – | inconclusive: 5.17 µM [inhibitor, partial curve, poor fit]
COc1ccc(C2=NCCn3nc4ccccc4c32)cc1 | – | inconclusive: 31.6 µM [activator, single point]

SMILES | activity change, negative = inhibition | Potency
Cc1cc(C)nc(SCCn2c(N(C)Cc3ccccc3)nc3c2c(=O)n(C)c(=O)n3C)n1 | inactive: 0.0977% | –
CN(CC(=O)Nc1ccccc1Cl)C(=O)c1cc(=O)[nH]c2ccccc12 | – | inconclusive: 23.1 µM [activator, single point]
Cc1cc(-c2nn(C)c(=O)c3ccccc23)ccc1CNC(=O)NC1CCCCC1 | – | inconclusive: 29.1 µM [inhibitor, single point]
COC(=O)[C@]1(C)N[C@H](CN(C)C(=O)c2ccc(F)cc2)[C@@H]2C(=O)N(Cc3ccccc3)C(=O)[C@@H]21 | inactive: 8.29% | –
CN(C)S(=O)(=O)c1cccc(NC(=O)COC(=O)c2cc(-c3cccc(Br)c3)nc3ccccc23)c1 | – | inconclusive: 16.4 µM [inhibitor, single point]
CCN(CC(O)CON=C1c2ccccc2-c2ccccc21)S(=O)(=O)c1ccc(Cl)cc1 (configuration not stated) | – | inconclusive: 29.1 µM [inhibitor, single point]
CC(=O)c1ccc(OCc2cc(C(=O)N3CCOCC3)no2)cc1 | – | inconclusive: 20.6 µM [activator, partial curve]
COc1cccc(C(=O)O/N=C(\N)c2ccccn2)c1OC | – | inconclusive: 1.83 µM [activator, partial curve]
O=C(CSc1nnc(C2CC2)n1C1CC1)c1ccc(F)cc1 | – | inconclusive: 14.6 µM [activator, partial curve]
CCOC(=O)CC(NC(=O)c1cccc2c1C(=O)N(Cc1cccnc1)C2)c1ccc(OC(C)C)cc1 (configuration not stated) | – | inconclusive: 25.9 µM [inhibitor, single point]
CCOC(=O)c1cnc2c(c(C)nn2CC)c1NCCN1CCOCC1 | inactive: -10.4% | –
CCOC(=O)N1CCN(C(=O)c2oc(=O)c3ccccc3c2-c2ccc(C)cc2)CC1 | – | inconclusive: 16.4 µM [inhibitor, single point]
O=C(Nc1ccc(Cl)cn1)c1ccc2[nH]c(=O)c(=O)[nH]c2c1 | inactive: 11.6% | –
CCOc1ccc(-c2nnc(-c3ccccc3)o2)cc1 | – | inconclusive: 1.03 µM [activator, partial curve]
O=C(Nc1ccc(-c2cnco2)cc1)c1ccc(F)cc1F | – | inconclusive: 11.6 µM [activator, partial curve]
O=C(COc1ccc(Br)cc1Br)NC1CCCC1 | – | inconclusive: 3.26 µM [inhibitor, partial curve, poor fit]
Nc1cc(OC(=O)c2ccc(F)cc2)nn1S(=O)(=O)c1ccccc1 | inactive: -22.9% | –
COc1ccc2[nH]c(O)c(N=NC(=O)c3ccc(NS(=O)(=O)c4cccs4)cc3)c2c1 | – | inconclusive: 2.31 µM [activator, full curve, poor fit]
COc1ccc(-c2sc3ccccc3c2C#Cc2cncn2C)cc1 | – | inconclusive: 20.6 µM [inhibitor, single point]
CC1(C)CC(=O)c2cc(C(=O)O)c(=O)n(-c3ccccc3)c2C1 | inactive: 10.1% | –
COc1ccc(CC(=O)Nc2ccc(S(=O)(=O)Nc3cc(C)on3)cc2)cc1 | – | inconclusive: 20.6 µM [activator, single point]
COc1cccc(/C=C2\C(=O)C(=O)c3ccccc32)c1 | – | inconclusive: 29.1 µM [activator, single point]
CC1CCN(c2ccc(NC(=O)Cc3ccccc3)cc2)CC1 | – | inconclusive: 9.2 µM [activator, partial curve]

SMILES | activity change, negative = inhibition | Potency
Cc1ccc2nc(NC(=O)C3CCCN(S(=O)(=O)c4cnc[nH]4)C3)sc2c1 (configuration not stated) | – | inconclusive: 2.91 µM [activator, single point]
CCN(CC(=O)Nc1ccc2c(c1)OCCO2)CC(=O)Nc1ccc(C)c(S(=O)(=O)N(C)C)c1 | – | inconclusive: 23.1 µM [inhibitor, single point]
Cc1ccc(Cn2cnc3c(cnn3-c3ccc(F)cc3)c2=O)cc1 | – | inconclusive: 9.2 µM [inhibitor, partial curve]
CC[n+]1c(C)sc2c3ccsc3ccc21 | inactive: 2.37% | –
C[C@@H](C(=O)NCC1CC1)[C@H]1C[C@]1(C)[C@H](NC(=O)OCc1ccccc1)c1ccccc1 | – | inconclusive: 14.6 µM [inhibitor, partial curve, poor fit]
COC(=O)c1cc2c(ccn2-c2ccc(F)cc2)n1CC(C)C | inactive: 5.33% | –
Cn1nnnc1Sc1ncnc2scc(-c3cccc4c3sc3ccccc34)c12 | – | inconclusive: 13 µM [inhibitor, partial curve, poor fit]
Cc1ccc(S(=O)(=O)NC(C(=O)N2CCN(S(=O)(=O)c3cccc(F)c3)CC2)C(C)C)cc1 (configuration not stated) | inactive: -3.45% | –
Cc1cc(C)c(OCCCNC2CCCC2)c(Br)c1 | – | inconclusive: 29.1 µM [inhibitor, single point]
COc1cc(C(=O)NCCN2C(=O)S/C(=C\c3cccs3)C2=O)cc(OC)c1OC | inactive: -3.91% | –
Cc1c(C(=O)NCC2CCCO2)sc2nc(-c3ccccc3)cn12 (configuration not stated) | – | inconclusive: 2.59 µM [activator, partial curve, poor fit]
O=C1CCCCN1CCC(=O)N1CCCC(Nc2ccc(F)c(F)c2)C1 (configuration not stated) | inactive: 16.4% | –
COc1ccc(-n2c(=S)[nH]c3ncccc3c2=O)cc1 | – | inconclusive: 11.6 µM [activator, single point]
CN1C(=O)/C(=N\OC(=O)c2cccc3ccccc23)c2ccccc21 | – | inconclusive: 20.6 µM [activator, single point]
N#C/C(=N\Nc1ccc(Cl)cc1)C(=N)N1CCCCCC1 | – | inconclusive: 2.06 µM [activator, full curve]
COCCNC(=S)N(CCc1c(C)[nH]c2ccc(C)cc12)Cc1cc(OC)c(OC)c(OC)c1 | – | inconclusive: 13 µM [inhibitor, partial curve, poor fit]
CCN(CC)S(=O)(=O)c1ccc(OCCNS(C)(=O)=O)cc1 | inactive: -2.88% | –
COc1ccc(S(=O)(=O)N2CCN(CC(=O)c3ccc(O)c(O)c3)CC2)cc1 | inactive: 6.2% | –
CCN(CC)C(=O)c1cn(-c2ccccc2)nc1-c1ccc2c(c1)OCCO2 | – | inconclusive: 20.6 µM [inhibitor, single point]
COc1ccc(Cl)cc1N/C(N)=N/c1nc(CSc2ccc(C)cc2)cc(=O)[nH]1 | – | inconclusive: 23.1 µM [inhibitor, single point]
Cc1ccc(-n2c(N)c(C(=O)Nc3c(C)n(C)n(-c4ccccc4)c3=O)c3nc4ccccc4nc32)cc1C | – | inconclusive: 16.4 µM [inhibitor, single point]
